Results as given in article doi:10.1101/2024.01.28.577638.
Like-named read-outs stand apart in the source and are kept apart here. Results are given in words; binding and its absence hold for the method and conditions named. Binding seen in cells or lysates may run through a third protein. Some binding calls cover weakened binding; strength is not graded here.

Amino acid sequences for entries named in this document (tags omitted).
UniProt P35222: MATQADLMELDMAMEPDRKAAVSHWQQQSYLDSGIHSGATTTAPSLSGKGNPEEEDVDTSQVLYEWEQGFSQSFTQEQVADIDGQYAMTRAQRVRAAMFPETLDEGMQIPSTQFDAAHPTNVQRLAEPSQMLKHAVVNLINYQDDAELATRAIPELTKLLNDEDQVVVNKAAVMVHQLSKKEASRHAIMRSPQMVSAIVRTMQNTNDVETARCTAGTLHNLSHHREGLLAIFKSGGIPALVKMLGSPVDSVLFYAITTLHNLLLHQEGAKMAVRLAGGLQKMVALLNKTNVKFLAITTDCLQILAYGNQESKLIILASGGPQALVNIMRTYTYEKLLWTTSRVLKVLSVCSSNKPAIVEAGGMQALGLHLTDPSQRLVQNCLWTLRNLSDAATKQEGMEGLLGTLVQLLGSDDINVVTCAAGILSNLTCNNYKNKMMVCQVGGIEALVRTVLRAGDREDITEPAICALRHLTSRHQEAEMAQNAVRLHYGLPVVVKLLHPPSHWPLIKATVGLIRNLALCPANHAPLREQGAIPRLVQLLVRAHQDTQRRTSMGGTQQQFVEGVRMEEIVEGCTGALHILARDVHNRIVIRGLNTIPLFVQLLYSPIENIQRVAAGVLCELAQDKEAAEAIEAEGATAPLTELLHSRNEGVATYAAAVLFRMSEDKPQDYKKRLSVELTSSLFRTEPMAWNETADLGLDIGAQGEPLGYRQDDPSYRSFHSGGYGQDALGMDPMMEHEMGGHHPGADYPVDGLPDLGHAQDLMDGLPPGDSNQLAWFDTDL
UniProt Q96DH6: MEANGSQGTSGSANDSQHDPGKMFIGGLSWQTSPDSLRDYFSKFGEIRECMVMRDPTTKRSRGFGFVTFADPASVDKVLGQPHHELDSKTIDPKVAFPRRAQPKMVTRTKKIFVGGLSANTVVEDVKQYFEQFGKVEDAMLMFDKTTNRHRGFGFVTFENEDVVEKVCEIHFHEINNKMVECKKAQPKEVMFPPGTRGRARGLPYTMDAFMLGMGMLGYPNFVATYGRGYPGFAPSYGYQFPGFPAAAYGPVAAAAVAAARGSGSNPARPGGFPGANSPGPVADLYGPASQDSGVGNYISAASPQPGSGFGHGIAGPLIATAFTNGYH
UniProt Q15717: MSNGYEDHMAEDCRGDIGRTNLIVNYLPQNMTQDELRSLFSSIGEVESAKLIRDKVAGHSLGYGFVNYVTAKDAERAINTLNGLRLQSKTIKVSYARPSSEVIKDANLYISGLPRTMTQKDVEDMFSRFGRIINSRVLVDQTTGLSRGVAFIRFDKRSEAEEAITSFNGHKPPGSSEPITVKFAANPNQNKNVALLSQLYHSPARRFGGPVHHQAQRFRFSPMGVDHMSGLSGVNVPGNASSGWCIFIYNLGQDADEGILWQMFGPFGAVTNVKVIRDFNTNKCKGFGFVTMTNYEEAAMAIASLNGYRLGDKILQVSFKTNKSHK

Assays:
Experiment in all cases: co-IP
[1] = target: β-catenin (human (endogenous in K562, HEL and primary AML cells)) (UniProt P35222)
[2] = target: Musashi-2 (human (endogenous in K562, HEL and primary AML cells)) (UniProt Q96DH6)
[3] = target: Musashi-2 (human (endogenous in K562, HEL and primary AML cells)) (UniProt Q96DH6); remark: listed apart in the source

Substance: HuR (from UniProt Q15717 1-326)
- binding [1]: binds

Substance: β-catenin (from UniProt P35222 1-781)
- binding [2]: binds
- binding [3]: binds
